Laboratory results: PubChem BioAssay AID1053209 (Peter MacCallum Cancer Centre, 2014)
Purpose: 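Follow-up of single siRNAs that strengthen doxorubicin killing in osteosarcoma cells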 (follow-up of hits). Cells: mouse primary osteosarcoma cells. Reagent: single siRNA against mouse genes, 25 nM (text also states 40 nM). Time to read-out: about 120 h (48 h before drug, then 72 h with drug). Challenge: doxorubicin 100 nM (about IC30-40), added 48 h after transfection, for 72 h. Measurement: 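Viability measured by ATP luminescence with and without doxorubicin, each replicate scaled to non-targeting siRNA NT1, averaged over two replicates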. Direction: viability with doxorubicin, vs NT1: higher = more viable cells under doxorubicin; viability without drug, vs NT1: higher = more viable cells without drug. Rule for the call: 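Counted as active (class LC dox) if viability falls to 0.7 of NT1 or below under doxorubicin but stays within 0.7 to 1.1 without drug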.
In all, the deposit lists about 1,580 reagents; this is a random part of them. 207 of all reagents (13%) count as active. 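Rows are single siRNAs; four siRNAs per gene were tested, a gene counting as confirmed only when at least two agree.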 The numbers tell different reagents against one gene apart. Further read-outs or replicates are left out here.

After knock-down of Rps24 #1, the screen gave combined effect class low viability with and without drug; viability with doxorubicin, vs NT1 = 0.42; viability without drug, vs NT1 = 0.32; inactive.
Knock-down of Rps24 #2 came out at: combined effect class low viability with and without drug; viability with doxorubicin, vs NT1 = 0.52; viability without drug, vs NT1 = 0.4; inactive.
For Rps24 #3, the values are combined effect class low viability with and without drug; viability with doxorubicin, vs NT1 = 0.28; viability without drug, vs NT1 = 0.6; inactive.
Rps24 #4 showed combined effect class low viability with and without drug; viability with doxorubicin, vs NT1 = 0.24; viability without drug, vs NT1 = 0.48; inactive.
Depletion of Ccdc178 #1 came out at: combined effect class low viability only with doxorubicin; normal without drug; viability with doxorubicin, vs NT1 = 0.6; viability without drug, vs NT1 = 0.82; active.
Against Ccdc178 #2, the values are combined effect class high viability only with doxorubicin; viability with doxorubicin, vs NT1 = 1.14; viability without drug, vs NT1 = 1.02; inactive.
Ccdc178 #3 scored combined effect class normal viability with and without drug; viability with doxorubicin, vs NT1 = 0.98; viability without drug, vs NT1 = 1; inactive.
Ccdc178 #4 gave combined effect class normal viability with and without drug; viability with doxorubicin, vs NT1 = 0.86; viability without drug, vs NT1 = 0.94; inactive.
Against Runx1 #1, the values are combined effect class normal viability with and without drug; viability with doxorubicin, vs NT1 = 1.01; viability without drug, vs NT1 = 1.04; inactive.
With knock-down of Runx1 #2, the record shows combined effect class high viability only with doxorubicin; viability with doxorubicin, vs NT1 = 1.1; viability without drug, vs NT1 = 1.05; inactive.
Against Runx1 #3 the deposit lists combined effect class high viability only without drug; viability with doxorubicin, vs NT1 = 0.9; viability without drug, vs NT1 = 1.16; inactive.
Knock-down of Runx1 #4 came out at: combined effect class normal viability with and without drug; viability with doxorubicin, vs NT1 = 1.03; viability without drug, vs NT1 = 0.88; inactive.
Knock-down of Psma4 #1 resulted in: combined effect class low viability with and without drug; viability with doxorubicin, vs NT1 = 0.34; viability without drug, vs NT1 = 0.66; inactive.
For Psma4 #2 the deposit lists combined effect class low viability with and without drug; viability with doxorubicin, vs NT1 = 0.35; viability without drug, vs NT1 = 0.6; inactive.
With knock-down of Psma4 #3, the screen gave combined effect class low viability with and without drug; viability with doxorubicin, vs NT1 = 0.16; viability without drug, vs NT1 = 0.43; inactive.
Knock-down of Psma4 #4 resulted in: combined effect class low viability with and without drug; viability with doxorubicin, vs NT1 = 0.32; viability without drug, vs NT1 = 0.68; inactive.
Rpl27 #1 scored combined effect class low viability only with doxorubicin; normal without drug; viability with doxorubicin, vs NT1 = 0.63; viability without drug, vs NT1 = 0.83; active.
Against Rpl27 #2, the values are combined effect class normal viability with and without drug; viability with doxorubicin, vs NT1 = 0.72; viability without drug, vs NT1 = 0.8; inactive.
After knock-down of Rpl27 #3, the screen gave combined effect class low viability only with doxorubicin; normal without drug; viability with doxorubicin, vs NT1 = 0.55; viability without drug, vs NT1 = 0.81; active.
Rpl27 #4 gave combined effect class low viability only with doxorubicin; normal without drug; viability with doxorubicin, vs NT1 = 0.67; viability without drug, vs NT1 = 0.72; active.
After knock-down of U2af1 #1, the screen gave combined effect class low viability with and without drug; viability with doxorubicin, vs NT1 = 0.54; viability without drug, vs NT1 = 0.69; inactive.
Depletion of U2af1 #2 gave: combined effect class low viability only with doxorubicin; normal without drug; viability with doxorubicin, vs NT1 = 0.47; viability without drug, vs NT1 = 0.72; active.
U2af1 #3 showed combined effect class low viability only with doxorubicin; normal without drug; viability with doxorubicin, vs NT1 = 0.4; viability without drug, vs NT1 = 0.82; active.
After knock-down of U2af1 #4, the screen gave combined effect class low viability only with doxorubicin; normal without drug; viability with doxorubicin, vs NT1 = 0.45; viability without drug, vs NT1 = 0.81; active.
Silencing of Polr1a #1 came out at: combined effect class low viability only with doxorubicin; normal without drug; viability with doxorubicin, vs NT1 = 0.44; viability without drug, vs NT1 = 0.76; active.
For Polr1a #2, the entry reads combined effect class normal viability with and without drug; viability with doxorubicin, vs NT1 = 0.83; viability without drug, vs NT1 = 0.86; inactive.
With knock-down of Polr1a #3, the screen gave combined effect class normal viability with and without drug; viability with doxorubicin, vs NT1 = 0.92; viability without drug, vs NT1 = 0.9; inactive.
Polr1a #4 gave combined effect class normal viability with and without drug; viability with doxorubicin, vs NT1 = 0.72; viability without drug, vs NT1 = 0.94; inactive.

Reagents listed so far with an active call, once more:
Ccdc178 #1 → combined effect class: low viability only with doxorubicin; normal without drug; viability with doxorubicin, vs NT1: 0.6; viability without drug, vs NT1: 0.82; Call: active
Rpl27 #1 → combined effect class: low viability only with doxorubicin; normal without drug; viability with doxorubicin, vs NT1: 0.63; viability without drug, vs NT1: 0.83; Call: active
Rpl27 #3 → combined effect class: low viability only with doxorubicin; normal without drug; viability with doxorubicin, vs NT1: 0.55; viability without drug, vs NT1: 0.81; Call: active
Rpl27 #4 → combined effect class: low viability only with doxorubicin; normal without drug; viability with doxorubicin, vs NT1: 0.67; viability without drug, vs NT1: 0.72; Call: active
U2af1 #2 → combined effect class: low viability only with doxorubicin; normal without drug; viability with doxorubicin, vs NT1: 0.47; viability without drug, vs NT1: 0.72; Call: active
U2af1 #3 → combined effect class: low viability only with doxorubicin; normal without drug; viability with doxorubicin, vs NT1: 0.4; viability without drug, vs NT1: 0.82; Call: active
U2af1 #4 → combined effect class: low viability only with doxorubicin; normal without drug; viability with doxorubicin, vs NT1: 0.45; viability without drug, vs NT1: 0.81; Call: active
Polr1a #1 → combined effect class: low viability only with doxorubicin; normal without drug; viability with doxorubicin, vs NT1: 0.44; viability without drug, vs NT1: 0.76; Call: active
